Data: patent US6812015B1, “Histidine protein-phosphatase” (Merck Patent Gesellschaft, priority 1999, dated 2004)
For at least one compound, name, drawing or mass did not settle the structure.

Tested on: histidine protein phosphatase
Assay: Hydrolysis of substrates by the novel histidine protein phosphatase (specificity)
Format: biochemical, rabbit
Conditions: substance tested as substrate; + / − not defined
Procedure: The activity of the soluble histidine phosphatase is determined from the dephosphorylation of ^32P-labelled histidine-phosphorylated protein (CheA) as substrate. CheA is a recombinant bacterial histidine autokinase (Bilwes A M, Alex L A, Crane B R, Simon M I (1999) Cell 96:131-141); the C-terminal kinase domain phosphorylates the N-terminal His48. […] Detection on the one hand via ammonium molybdate, and on the other hand by autoradiography (FIG. 2).
The substrate (10 μl of ^32P-CheA) is mixed with […] of assay buffer (100 mM triethanolamine/hydrochloric acid pH 8.0, 0.1% 2-mercaptoethanol, 0.02% sodium nitrite) and the enzyme solution. The reaction takes place at 37° C. in 30 min. […] After a centrifugation (5 min at 15,800 g), the supernatant is removed and measured in a scintillation counter.

Structure (SMILES): O=[N+]([O-])c1ccc(OP(=O)(O)O)cc1 [p-nitrophenyl phosphate]
- Hydrolysis by the novel histidin protein phosphatase: −
